Binding data for 1 molecule are collected here from article PMC7239452.

No constants are given. Whether binding was seen depends on the method and setting. Binding seen in cells or lysates may run through a third protein. Some binding calls cover weakened binding; strength is not graded here.

This test deals with ERp29 (ER protein of 29 kDa; mouse, Min-6 insulinoma cells) (mouse (endogenous in Min-6)) (UniProt P57759). Briefly: co-IP; Min-6 cells lysed under non-denaturing conditions (RIPA without SDS or Thermo lysis buffer); 500 ug lysate protein, 10 ul primary antibody 1 h at room temperature, Protein G PLUS agarose 2 h; precipitate read by SDS-PAGE and immunoblot. A general note: Immunoblotting shows a protein as a band on a membrane.

B1: Sec24D (mouse, Min-6 insulinoma cells) (protein, UniProt Q6NXL1 1-1032)
chain: MSQQGYVATPPYSQSQPGMGISPPHYGHYGDPSHASSPPGVMKPLGPSAAPSGMLPPGPLPPGPPQFGPNGAHTPGHPPQRFPGPPPVNSVAPSYASGQTLPQSSYPGPGSTSSVTQLGSQFSSMQINSYGVGATPQSQGPPGPQSAGAFQGPPQPAQPSILQPGHQVPPPPPTALNGPGASPMSPPTHRQDGLPGPAPLNAQYQPPPPPGQTLGPGYPPQQATNYGPQMGGAQMSYPGGFPGGPAQMAGPAPQLQRKLDPDSIPSPIQVIENDRATRGGQVYTTNTRGQVPPLVTTECVIQDQGHSSPRYIRCTTYCFPCTSDMAKQAQIPLAAVIKPFADIPPNETPLYLVNHGESGPVRCNRCKAYMCPFMQFIEGGRRYQCGFCSCVNEVPPFYFQHLDHIGRRLDHYEKPELSLGSYEYVATLDYCRKNKPPSPPAFIFMIDVSYSNIKNGLVKLICEELKTALKRLPKEEHEETSAIRVGFITYNKVLHFFNVKSNLAQPQMMVVTDVGEVFVPLLDGFLVNYEESQSVIHNLLDQIPEMFADSNENETVFAPVIQAGMEALKAAECPGKLFIFHSSLPTAEAPGKLKNRDDKKLVNTDKEKILFQPQTAVYESLAKDCVANSCSVTLFLFPSQFVDVASLGLVPLLTGGTLYKYNVFQIHSDSQRFLTDLRNDIEKKIGFDAIMRVRTSTGFRATDFFGGIFMNNTTDVEMAAIDCDKAVTVEFKHDDKLSEDVGALIQCAVLYTTISGQRRLRIHNLALNCSTQLADLYKSCETDALINFFAKSAFKAVLNQPLKAIREILVNQTAHMLACYRKHCASPSAASQLILPDSMKVLPVYMNSLLKNCVLLSRSEISPDERAYQRQLVMTMGVADSQLFFYPLLLPIHTLDVKSAALPPAVRCSESRLSEEGIFLLANGLNMFLWFGVGSPPELIQGIFNVPSFAHINTDMTSLPEVGSPHSQQLRMIMNNIQQKKPYSMKLIVVKQREQREMAFRQFLVEDKGLYGGSSYVDFLCCVHKEICQLLN
Take B1: the binding entry is reported as “binds”.
